This note sets out measurements from publication doi:10.1101/2020.01.26.920447.

Chains of the proteins cited; added tags and fusions are not shown.
UniProt P11983: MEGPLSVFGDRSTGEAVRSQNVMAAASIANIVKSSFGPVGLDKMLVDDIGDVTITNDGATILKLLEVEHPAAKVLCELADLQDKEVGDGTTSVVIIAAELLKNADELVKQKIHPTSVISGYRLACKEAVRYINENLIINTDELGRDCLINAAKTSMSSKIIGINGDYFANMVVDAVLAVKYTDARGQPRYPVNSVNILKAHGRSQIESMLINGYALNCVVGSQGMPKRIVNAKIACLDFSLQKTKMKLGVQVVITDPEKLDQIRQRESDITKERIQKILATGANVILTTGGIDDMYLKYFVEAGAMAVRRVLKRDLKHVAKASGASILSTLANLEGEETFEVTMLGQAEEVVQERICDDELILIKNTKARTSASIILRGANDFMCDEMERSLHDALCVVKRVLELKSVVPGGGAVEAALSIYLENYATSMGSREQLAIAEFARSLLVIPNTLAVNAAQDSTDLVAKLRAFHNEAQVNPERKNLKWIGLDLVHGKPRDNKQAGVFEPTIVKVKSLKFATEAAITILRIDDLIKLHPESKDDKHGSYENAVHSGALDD

Results are given in words; binding and its absence hold for the method and conditions named. Binding seen in cells or lysates may run through a third protein. Some entries that bind do so weakly or less than the wild type.

Assay [1] concerns the target T1, T-complex subunit δ (mouse (endogenous in mouse brain)) (UniProt P80315).
T1 sequence: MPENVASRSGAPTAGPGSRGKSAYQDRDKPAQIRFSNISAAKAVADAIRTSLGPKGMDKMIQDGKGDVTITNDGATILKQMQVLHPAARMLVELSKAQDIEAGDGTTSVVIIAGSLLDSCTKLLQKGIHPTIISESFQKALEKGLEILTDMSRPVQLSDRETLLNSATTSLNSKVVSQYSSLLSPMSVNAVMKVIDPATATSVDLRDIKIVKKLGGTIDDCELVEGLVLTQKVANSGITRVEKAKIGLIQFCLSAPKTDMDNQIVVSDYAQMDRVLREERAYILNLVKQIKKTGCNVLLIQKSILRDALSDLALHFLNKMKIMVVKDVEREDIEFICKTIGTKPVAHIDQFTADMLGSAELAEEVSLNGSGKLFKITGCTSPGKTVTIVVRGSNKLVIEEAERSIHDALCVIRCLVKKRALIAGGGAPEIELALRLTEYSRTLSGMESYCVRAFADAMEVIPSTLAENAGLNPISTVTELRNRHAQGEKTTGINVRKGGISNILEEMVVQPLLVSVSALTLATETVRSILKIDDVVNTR
The assay can be described thus: cross-linking.

Assay [2] deals with T-complex subunit α (mouse (endogenous in mouse brain)) (UniProt P11983). The assay can be described thus: cross-linking.

B1: T-complex subunit β (protein, UniProt P80314 1-535)
chain: MASLSLAPVNIFKAGADEERAETARLSSFIGAIAIGDLVKSTLGPKGMDKILLSSGRDAALMVTNDGATILKNIGVDNPAAKVLVDMSRVQDDEVGDGTTSVTVLAAELLREAESLIAKKIHPQTIISGWREATKAAREALLSSAVDHGSDEARFWQDLMNIAGTTLSSKLLTHHKDHFTKLAVEAVLRLKGSGNLEAIHVIKKLGGSLADSYLDEGFLLDKKIGVNQPKRIENAKILIANTGMDTDKIKIFGSRVRVDSTAKVAEIEHAEKEKMKEKVERILKHGINCFINRQLIYNYPEQLFGAAGVMAIEHADFAGVERLALVTGGEIASTFDHPELVKLGSCKLIEEVMIGEDKLIHFSGVALGEACTIVLRGATQQILDEAERSLHDALCVLAQTVKDPRTVYGGGCSEMLMAHAVTQLANRTPGKEAVAMESFAKALRMLPTIIADNAGYDSADLVAQLRAAHSEGHITAGLDMKEGTIGDMAVLGITESFQVKRQVLLSAAEAAEVILRVDNIIKAAPRKRVPDHHPC
For B1, the binding entry in assay [1] is reported as “binds”.

B2: T-complex subunit δ (protein, UniProt P80315 1-539)
chain: MPENVASRSGAPTAGPGSRGKSAYQDRDKPAQIRFSNISAAKAVADAIRTSLGPKGMDKMIQDGKGDVTITNDGATILKQMQVLHPAARMLVELSKAQDIEAGDGTTSVVIIAGSLLDSCTKLLQKGIHPTIISESFQKALEKGLEILTDMSRPVQLSDRETLLNSATTSLNSKVVSQYSSLLSPMSVNAVMKVIDPATATSVDLRDIKIVKKLGGTIDDCELVEGLVLTQKVANSGITRVEKAKIGLIQFCLSAPKTDMDNQIVVSDYAQMDRVLREERAYILNLVKQIKKTGCNVLLIQKSILRDALSDLALHFLNKMKIMVVKDVEREDIEFICKTIGTKPVAHIDQFTADMLGSAELAEEVSLNGSGKLFKITGCTSPGKTVTIVVRGSNKLVIEEAERSIHDALCVIRCLVKKRALIAGGGAPEIELALRLTEYSRTLSGMESYCVRAFADAMEVIPSTLAENAGLNPISTVTELRNRHAQGEKTTGINVRKGGISNILEEMVVQPLLVSVSALTLATETVRSILKIDDVVNTR
Regarding B2, the binding result in assay [2] was “binds”.
